# Where a SMILES comes first, the peptide text is derived from it. Where no end group is shown, it is not given here. [ ]: non-standard residue; d: D form. Orn = NCCC[C@H](N)C(=O)O
# Test system: bacteria versus human red blood cell
# Conditions: 256 μM used for MHC5 when no hemolysis at 128 μM
# Method: To investigate the cell selectivity of novel antimicrobials, the total selectivity index (TSI) was calculated as the ratio of the minimal hemolysis concentration (MHC) to the geometric mean (GM) of the MIC values (Table 2).
Compound,"nSI (–), selectivity index MHC5/GM (−)","pSI (+), selectivity index MHC5/GM(+)","tSI, total selectivity index MHC5/TGM"
CC[C@H](C)[C@H](N)C(=O)N[C@@H](CCCNC(=N)N)C(=O)N1CCC[C@@H]1C(=O)N[C@H](C(=O)N[C@@H](CCCNC(=N)N)C(=O)N1CCC[C@@H]1C(=O)O)[C@@H](C)CC [DIR1] (H-IR[dP]IR[dP]-OH),1.0,1.0,1.0
CC[C@H](C)[C@H](N)C(=O)N[C@@H](CCCNC(=N)N)C(=O)N[C@H](C(=O)N[C@@H](CCCNC(=N)N)C(=O)N1CCC[C@@H]1C(=O)N[C@H](C(=O)N[C@@H](CCCNC(=N)N)C(=O)N[C@H](C(=O)N[C@@H](CCCNC(=N)N)C(=O)N1CCC[C@@H]1C(=O)O)[C@@H](C)CC)[C@@H](C)CC)[C@@H](C)CC [DIR2] (H-IRIR[dP]IRIR[dP]-OH),1.3,1.0,1.2
"CC(C)C[C@@H]1NC(=O)[C@H](CCCN)NC(=O)[C@H](C(C)C)NC(=O)[C@@H]2CCCN2C(=O)[C@@H](Cc2ccccc2)NC(=O)[C@H](CC(C)C)NC(=O)[C@H](CCCN)NC(=O)[C@H](C(C)C)NC(=O)[C@@H]2CCCN2C(=O)[C@@H](Cc2ccccc2)NC1=O [GS, gramicidin S, reference compound] (cyclo(V[Orn]L[dF]PV[Orn]L[dF]P))",1.3,4.0,2.2
CC[C@H](C)[C@@H]1NC(=O)[C@@H]2CCCN2C(=O)[C@H](CCCNC(=N)N)NC(=O)[C@H]([C@@H](C)CC)NC(=O)[C@@H]2CCCN2C(=O)[C@H](CCCNC(=N)N)NC1=O [OIR1] (cyclo(IRPIRP)),1.0,1.0,1.0
CC[C@H](C)[C@@H]1NC(=O)[C@H](CCCNC(=N)N)NC(=O)[C@H]([C@@H](C)CC)NC(=O)[C@@H]2CCCN2C(=O)[C@H](CCCNC(=N)N)NC(=O)[C@H]([C@@H](C)CC)NC(=O)[C@H](CCCNC(=N)N)NC(=O)[C@H]([C@@H](C)CC)NC(=O)[C@@H]2CCCN2C(=O)[C@H](CCCNC(=N)N)NC1=O [OIR2] (cyclo(IRIRPIRIRP)),1.7,1.0,1.4
CC[C@H](C)[C@@H]1NC(=O)[C@H](CCCNC(=N)N)NC(=O)[C@H]([C@@H](C)CC)NC(=O)[C@@H]2CCCN2C(=O)[C@H](CCCNC(=N)N)NC(=O)[C@H]([C@@H](C)CC)NC(=O)[C@H](CCCNC(=N)N)NC(=O)[C@H]([C@@H](C)CC)NC(=O)[C@H](CCCNC(=N)N)NC(=O)[C@H]([C@@H](C)CC)NC(=O)[C@@H]2CCCN2C(=O)[C@H](CCCNC(=N)N)NC(=O)[C@H]([C@@H](C)CC)NC(=O)[C@H](CCCNC(=N)N)NC1=O [OIR3] (cyclo(IRIRIRPIRIRIRP)),73.1,64.0,69.2
"Colistin Sulfate [CS, reference compound]",320.0,3.4,43.4
IRIRIRPIRIRIRP [IR3],21.2,2.8,11.3
IRIRPIRIRP [IR2],1.0,1.0,1.0
IRPIRP [IR1],1.0,1.0,1.0
